# Record: PubChem BioAssay AID1259254 (NCATS, 2017)
# Test: 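Finding genes that stop cells copying their DNA twice in one cycle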 (primary screen)
# Cell system: human HCT116 colorectal cancer cells
# Reagents: single siRNA against human genes
# Timing: 3 days
# Measurement: 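Imaged Hoechst DNA stain sorts each cell into a cycle phase by DNA amount; per plate, G2 fraction set to 0% for non-targeting and 100% for GMNN siRNA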
# Direction: G2 robust z-score and G2 cells, % of GMNN control: higher = more G2 cells, more excess DNA replication; raw share of cells in G2: higher = larger share of cells with G2 DNA content
# Hit rule: 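Active siRNAs have a G2 robust z of 5 or more median absolute deviations over the median, which in these data means about 38% or higher of GMNN control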
# This is one part, drawn at random, of about 59,000 deposited reagents. About 1,550 of them (2.6%) count as active. 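G2 share is only a proxy for re-replication; each gene was hit by three separate siRNAs, and active genes were retested.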 Raw values vary from plate to plate and are shown uncorrected. Unmarked entries are inactive. The numbers tell different reagents against one gene apart. Not stated in the record: the amount of reagent.
target,reagent,G2 robust z-score,"G2 cells, % of GMNN control",raw share of cells in G2 (%)
UFD1 (GeneID 7353),1,2.26,18.9,13.5
UFD1 (GeneID 7353),2,0.0644,3.42,5.25
UFD1 (GeneID 7353),3,2.47,20.3,10.5
ZNF230 (GeneID 7773),1,1.52,13.7,12.1
ZNF230 (GeneID 7773),2,-0.465,-0.302,3.21
ZNF230 (GeneID 7773),3,-0.927,-3.56,2.34
CABP1 (GeneID 9478),1,0.236,4.63,8.05
CABP1 (GeneID 9478),2,-0.163,1.82,4.1
CABP1 (GeneID 9478),3,-0.808,-2.72,2.62
KRT33B (GeneID 3884),1,0.71,7.96,7.94
KRT33B (GeneID 3884),2,0.085,3.57,7.04
KRT33B (GeneID 3884),3,-0.638,-1.52,3.64
TWIST2 (GeneID 117581),1,-0.62,-1.39,3.95
TWIST2 (GeneID 117581),2,2.67,21.8,14.3
TWIST2 (GeneID 117581),3,1.36,12.5,11.5
TSPEAR (GeneID 54084),1,1.85,16,9.32
TSPEAR (GeneID 54084),2,1.55,13.9,10.1
TSPEAR (GeneID 54084),3,-0.479,-0.403,3.06
MAPRE1 (GeneID 22919),1,0.811,8.67,6.42
MAPRE1 (GeneID 22919),2,2.33,19.4,12.6
MAPRE1 (GeneID 22919),3,1.59,14.1,9.97
CKMT1B (GeneID 1159),1,-0.496,-0.524,5.23
CKMT1B (GeneID 1159),2,0.466,6.24,7.67
CKMT1B (GeneID 1159),3,-0.799,-2.65,3.09
PTX4 (GeneID 390667),1,1.72,15,9.95
PTX4 (GeneID 390667),2,1.82,15.8,11.4
PTX4 (GeneID 390667),3,-1.24,-5.73,1.81
GNAL (GeneID 2774),1,0.983,9.88,8.83
GNAL (GeneID 2774),2,-0.17,1.77,5.94
GNAL (GeneID 2774),3,-0.183,1.68,4.26
TEX14 (GeneID 56155),1,-1.08,-4.66,4.14
TEX14 (GeneID 56155),2,2.73,22.1,13.2
TEX14 (GeneID 56155),3,0.345,5.39,5.41
LIN28B (GeneID 389421),1,8.43 (active),62.3,32.8
LIN28B (GeneID 389421),2,4.5,34.6,18.5
LIN28B (GeneID 389421),3,-0.441,-0.134,4.24
PHB2 (GeneID 11331),1,-0.463,-0.289,4.87
PHB2 (GeneID 11331),2,-0.989,-3.99,2.49
PHB2 (GeneID 11331),3,1.95,16.7,9.42
COL17A1 (GeneID 1308),1,-0.29,0.925,3.83
COL17A1 (GeneID 1308),2,0.405,5.81,7.57
COL17A1 (GeneID 1308),3,-0.656,-1.65,2.51
TRIM65 (GeneID 201292),1,0.184,4.26,6.26
TRIM65 (GeneID 201292),2,2.24,18.7,12.6
TRIM65 (GeneID 201292),3,-0.968,-3.84,4.12
IQSEC3 (GeneID 440073),1,0.858,9,7.08
IQSEC3 (GeneID 440073),2,4.03,31.3,15.9
IQSEC3 (GeneID 440073),3,-0.0293,2.76,5.94

Called active (from the list above):
target,reagent,G2 robust z-score,"G2 cells, % of GMNN control",raw share of cells in G2 (%)
LIN28B (GeneID 389421),1,8.43 (active),62.3,32.8

The list goes on.
target,reagent,G2 robust z-score,"G2 cells, % of GMNN control",raw share of cells in G2 (%)
ISLR2 (GeneID 57611),1,3.74,29.3,14.9
ISLR2 (GeneID 57611),2,0.284,4.96,6.1
ISLR2 (GeneID 57611),3,-0.568,-1.03,5.22
CPO (GeneID 130749),1,-0.581,-1.12,5.12
CPO (GeneID 130749),2,1.62,14.4,9.21
CPO (GeneID 130749),3,-0.779,-2.52,3.32
LOC642677 (GeneID 642677),1,0.69,7.82,6.64
LOC642677 (GeneID 642677),2,-0.377,0.318,3.54
LOC642677 (GeneID 642677),3,-0.321,0.706,3.36
OASL (GeneID 8638),1,-0.403,0.134,4.75
OASL (GeneID 8638),2,-1.19,-5.43,3.36
OASL (GeneID 8638),3,-0.265,1.1,5.04
SALL3 (GeneID 27164),1,0.941,9.59,7.13
SALL3 (GeneID 27164),2,0.335,5.32,5.95
SALL3 (GeneID 27164),3,0.762,8.33,9.94
NLRP5 (GeneID 126206),1,0.68,7.75,7.1
NLRP5 (GeneID 126206),2,-0.972,-3.87,1.87
NLRP5 (GeneID 126206),3,-0.694,-1.92,1.88
H3C12 (GeneID 8356),1,-0.0358,2.72,6.34
H3C12 (GeneID 8356),2,-0.94,-3.65,2.45
H3C12 (GeneID 8356),3,4.17,32.3,14.8
LRRC61 (GeneID 65999),1,0.963,9.74,8.82
LRRC61 (GeneID 65999),2,0.541,6.78,7.65
LRRC61 (GeneID 65999),3,1.21,11.5,5.73
PIPOX (GeneID 51268),1,1.11,10.8,8.22
PIPOX (GeneID 51268),2,-0.199,1.56,4.4
PIPOX (GeneID 51268),3,-0.537,-0.808,5.59
SUSD4 (GeneID 55061),1,-0.484,-0.435,4.36
SUSD4 (GeneID 55061),2,2.47,20.4,12.6
SUSD4 (GeneID 55061),3,-0.0774,2.42,3.91
RELCH (GeneID 57614),1,-0.342,0.558,4.57
RELCH (GeneID 57614),2,-0.902,-3.38,2.84
RELCH (GeneID 57614),3,4.28,33.1,13.5
DOCK3 (GeneID 1795),1,1.3,12.1,9.28
DOCK3 (GeneID 1795),2,-0.915,-3.47,3.72
DOCK3 (GeneID 1795),3,-0.56,-0.974,3.76
SULF1 (GeneID 23213),1,-0.522,-0.704,6.09
SULF1 (GeneID 23213),2,-0.907,-3.41,3.01
SULF1 (GeneID 23213),3,-0.536,-0.806,3.59
